Literature values in patent US20090258079A1, “Biocompatible Block Copolymer, Use Thereof and Manufacturing Method Thereof” (priority 2005, published 2009).

Details: drug without block copolymer, stated as known property; cited from earlier work

## CC(=O)O[C@H]1C(=O)[C@@]2(C)[C@H]([C@H](OC(=O)c3ccccc3)[C@]3(O)C[C@H](OC(=O)[C@H](O)[C@@H](NC(=O)c4ccccc4)c4ccccc4)C(C)=C1C3(C)C)[C@]1(OC(C)=O)CO[C@@H]1C[C@@H]2O [paclitaxel]
  solubility of the drug alone in water: insoluble in water
